Measured values as given in the supplement of paper PMC7877785.
± gives the uncertainty stated by the source. Many of these values have a large error.

Test: self-splicing fitness, log relative to wild type (ln ratio); higher = more splicing; Tetrahymena group I intron in knt gene, E. coli kanamycin selection, DiMSum; sequences stand for … in CUCUCU…GGAGGGAAAAGUUAUCAGGCAUGCACCUGGUAGCUAGUCUUUAAACCAAUAGAUUGCAUCGGUUUAAAAGGCAAGACCGUCAAAUUGCGGGAAAGGGGUCAACAGCCGUUCAGUACCAAGUCUCAGGGGAAACUUUGAGAUGGCCUUGCAAAGGGUAUGGUAAUAAGCUGACGGACAUGGUCCUAACCACGCAGCCAAGUCCUAAGUCAACAGAUCUUCUGUUGAUAUGGAUGCAGUUCACAGACUAAAUGUCGGUCGGGGAAGAUGUAUUCUUCUCAUAAGAUAUAGUCGGACCUCUCCUUAAUGGGAGCUAGCGGAUGAAGUGAUGCAACACUGGAGCCGCUGGGAACUAAUUUGUAUGCGAAAGUAUAUUGAUUAGUUUUGGAGUACUCGUGGUCG
How it was run: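 Pooled colonies went to amplicon sequencing on an Illumina HiSeq 2500 after six replicate transformations. The plates were LB agar with 100 μg/mL carbenicillin, 50 μM IPTG and 0.2% rhamnose, with or without 25 μg/mL kanamycin, incubated overnight at 37°C or 30°C. The E. coli BL21(DE3) library had all eight P1ex-region intron nucleotides randomised, the intron placed in the knt kanamycin-resistance gene on pET-22b(+). DiMSum fitness is the error-weighted combination of replicate fold changes, kanamycin against none, normalised to wild type.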

| Sequence | self-splicing fitness (ln) (30 °C) | self-splicing fitness (ln) (37 °C) |
| --- | --- | --- |
| GGAGAGCAAUAUUACGUCAC | -1.32 ± 1.4 | -1.78 ± 1.2 |
| GAAUAGCAAUAUUACGCUAU | -3.64 ± 0.75 | -3.51 ± 0.74 |
| CAACAGCAAUAUUACGGCAA | -1.45 ± 0.13 | -1.28 ± 0.12 |
| CUUAAGCAAUAUUACGGCCU | -2.74 ± 0.25 | -3.1 ± 0.44 |
| UUAGAGCAAUAUUACGAAUC | -3.7 ± 1.1 | -0.19 ± 0.92 |
| CGGGAGCAAUAUUACGAAUU | – | -2.72 ± 0.53 |
| GUUAAGCAAUAUUACGUUUG | -2.55 ± 0.12 | -1.86 ± 0.17 |
| CAGGAGCAAUAUUACGAUCC | -0.86 ± 0.91 | – |
| AAUUAGCAAUAUUACGGGCC | -3.81 ± 0.74 | – |
| CAAGAGCAAUAUUACGUGAC | -4.31 ± 0.73 | – |
| CCAGAGCAAUAUUACGUUGG | -3.93 ± 0.23 | -2.57 ± 0.23 |
| AUUGAGCAAUAUUACGUCCC | -2.09 ± 1.4 | -1.13 ± 1.2 |
| AUGUAGCAAUAUUACGAGGC | -5.29 ± 1 | – |
| UCACAGCAAUAUUACGCAAU | -5.19 ± 0.51 | – |
| CCGGAGCAAUAUUACGAGCA | -3.84 ± 0.76 | – |
| UCAGAGCAAUAUUACGCGGC | – | -3.08 ± 0.4 |
| GGGAAGCAAUAUUACGACCA | -1.75 ± 0.57 | 0.224 ± 0.84 |
| GAGCAGCAAUAUUACGCGUG | -1.92 ± 0.15 | -1.66 ± 0.18 |
| GGCAAGCAAUAUUACGCCGC | -2.09 ± 1 | -1.86 ± 0.58 |

| Sequence | self-splicing fitness (ln) (30 °C) | self-splicing fitness (ln) (37 °C) |
| --- | --- | --- |
| CCCAAGCAAUAUUACGGCCC | – | -1.83 ± 0.82 |
| CACGAGCAAUAUUACGGUUC | -4.71 ± 0.58 | – |
| GCAGAGCAAUAUUACGACCA | -1.41 ± 0.72 | -1.37 ± 0.57 |
| UGGAAGCAAUAUUACGAAUC | -3.11 ± 0.53 | -2.48 ± 0.77 |
| UUGCAGCAAUAUUACGGUAA | -0.988 ± 0.099 | -0.0317 ± 0.093 |
| CUUAAGCAAUAUUACGGGCC | -3.29 ± 0.76 | -2.57 ± 0.77 |
| AUUUAGCAAUAUUACGCCGG | -2.85 ± 0.63 | 0.459 ± 1.2 |
| UGCGAGCAAUAUUACGUCUC | – | -2.26 ± 0.57 |
| UGCCAGCAAUAUUACGCAAC | -4.28 ± 0.73 | – |
| CCGGAGCAAUAUUACGUUGC | – | -1.9 ± 0.58 |
| GAUGAGCAAUAUUACGUGUC | – | -3.49 ± 1 |
| AUCGAGCAAUAUUACGUAGA | -3.09 ± 0.32 | -2.7 ± 0.38 |
| GGGAAGCAAUAUUACGCAUC | -2.36 ± 0.39 | -1.77 ± 0.32 |
| ACGUAGCAAUAUUACGAAGC | -4.39 ± 0.52 | – |
| UGUUAGCAAUAUUACGGUCC | – | -1.31 ± 0.63 |
| UGAUAGCAAUAUUACGAGCC | – | -1.1 ± 0.65 |
| UCGGAGCAAUAUUACGUAUC | -2.77 ± 1.1 | – |
| AUCAAGCAAUAUUACGUCUU | -1.86 ± 0.072 | -0.301 ± 0.073 |
| UAAUAGCAAUAUUACGAAGU | -2.7 ± 0.76 | – |

Some of the entries above in a different format:
Sequence	self-splicing fitness (ln) (30 °C)	self-splicing fitness (ln) (37 °C)
CCCAAGCAAUAUUACGGCCC	–	-1.83 ± 0.82
CUUAAGCAAUAUUACGGGCC	-3.29 ± 0.76	-2.57 ± 0.77
UCGGAGCAAUAUUACGUAUC	-2.77 ± 1.1	–

(cont.)

| Sequence | self-splicing fitness (ln) (30 °C) | self-splicing fitness (ln) (37 °C) |
| --- | --- | --- |
| UAUGAGCAAUAUUACGAGCU | -2.71 ± 0.2 | -2.09 ± 0.42 |
| CCGUAGCAAUAUUACGGCCC | -0.828 ± 0.71 | – |
| CUCAAGCAAUAUUACGACUU | – | -3.32 ± 0.52 |
| UCGUAGCAAUAUUACGAUAC | -2.82 ± 0.56 | -3.23 ± 0.52 |
| CGAAAGCAAUAUUACGGGAC | -3.68 ± 0.73 | – |
| UGAAAGCAAUAUUACGUCCC | – | 0.859 ± 0.64 |
| UCCGAGCAAUAUUACGGAAC | – | -2.2 ± 0.56 |
| UAUCAGCAAUAUUACGUUCA | -0.267 ± 0.11 | 0.345 ± 0.15 |
| UGGAAGCAAUAUUACGCACC | -2.4 ± 0.6 | -0.896 ± 0.84 |
| GGAGAGCAAUAUUACGCUCU | -2.81 ± 0.76 | -2.01 ± 0.65 |
| GAUUAGCAAUAUUACGAUGU | -0.783 ± 0.074 | -0.611 ± 0.1 |
| UACGAGCAAUAUUACGACCA | – | -2.07 ± 0.78 |
| CGUGAGCAAUAUUACGCUUC | -3.91 ± 0.41 | -3.07 ± 0.43 |
| GGGGAGCAAUAUUACGGCCC | -1.97 ± 0.51 | -2.48 ± 1.1 |
| UAUUAGCAAUAUUACGAAAG | – | -0.714 ± 0.66 |
| GUUAAGCAAUAUUACGACGG | -4.26 ± 0.51 | -2.3 ± 0.52 |
| GGAUAGCAAUAUUACGAUGG | – | -2.43 ± 0.54 |
| CUAUAGCAAUAUUACGAGUU | -3.04 ± 0.16 | -0.864 ± 0.18 |
